The list shows only some results of the screen, not a fair sample: it is rich in T/C values a quarter to a half above the control, in often repeated tests (any T/C) and in doses without a T/C. Further doses and runs are listed elsewhere. T/C gives the treated animals as a percentage of the vehicle group. Some entries give survivors of the animals treated and no T/C: the source holds a T/C of zero for them, seemingly a mark for toxic or unscored doses. Some doses without a T/C left all or most animals alive at the check, yet need not have been tolerated: the source hardly ever lists a survival T/C far under the control, and the zero likely stands for such cases as well. Counts of survivors are from the toxicity check (mostly the fifth day) where no day follows; animals may have died later. Schedule codes are those of the source, taken here to give the interval after Q, in days (D) or hours (H), and the number of doses after X. Some entries hold several experiments; the values are given in rising order. Some structures stand for samples that the source files as different forms (salt, stereo form or complex); doses refer to the form tested. Signs of the kind (2×) count equal records among those shown. Where survival is the endpoint, this PubChem deposit counts one and a half times the control or more as active, and values a quarter to a half above the control carry no call in these data; other NCI protocols may use other cut-offs.
Tested on: BDF1 mice, B16 melanoma ip, median survival T/C
Test: NCI In Vivo Anticancer Drug Screen. Data for tumor model B16 Melanoma (intraperitoneal) in B6D2F1 (BDF1) mice
Details: T/C endpoint: median survival time, higher T/C = longer survival
Method in brief: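 Each result divides a survival or tumor-size measurement in the compound-treated group by the same measurement in the vehicle group.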

[1] = dose: 12.5 mg/kg/injection, schedule: Q01DX009 (ip), vehicle: saline
[2] = dose: 400.0 mg/kg/injection, schedule: Q01DX009 (ip), vehicle: saline with Tween-80
[3] = dose: 200.0 mg/kg/injection, schedule: Q01DX009 (ip), vehicle: saline with Tween-80
[4] = dose: 400.0 mg/kg/injection, schedule: Q01DX009 (ip), vehicle: saline

Q: What does the source list for `Cc1ccc(S(=O)(=O)OCCN(CCOS(=O)(=O)c2ccc(C)cc2)c2ccc(F)cc2)cc1`?
A: T/C [1]: 130 % of control; survivor count (dose: 25.0 mg/kg/injection, schedule: Q01DX009 (ip), vehicle: saline + alcohol): 6 of 10; T/C (dose: 25.0 mg/kg/injection, schedule: Q01DX009 (ip), vehicle: saline): 134 % of control

Q: With `CCC(C)C1NC(=O)C(NC(=O)c2c3nc4c(C(=O)NC5C(=O)NC(C(C)CC)C(=O)N6CCCC6C(=O)N(C)CC(=O)N(C)C(C(C)C)C(=O)OC5C)cc([N+](=O)[O-])c(C)c4oc-3c(C)c(=O)c2N)C(C)OC(=O)C(C(C)C)N(C)C(=O)CN(C)C(=O)C2CCCN2C1=O` (stereo not drawn) as the compound, how does the T/C (dose: 200.0 micrograms/kg/injection, schedule: Q01DX009 (ip), vehicle: water) read?
A: 134 % of control

Q: What about the survivor count (dose: 800.0 micrograms/kg/injection, schedule: Q01DX009 (ip), vehicle: water) of the same compound?
A: 10 of 10

Q: With `COC1CC(C)C(OC)c2cc(O)cc(c2O)NC(=O)/C(C)=C/C=C\C(C)C(OC(N)=O)/C(C)=C\C(C)C1OC` (stereo not drawn) as the compound, how does the T/C (dose: 1.25 mg/kg/injection, schedule: Q01DX009 (ip), vehicle: Klucel (hydroxypropylcellulose) (HPC), evaluated on day 45) read?
A: 137 % of control

Q: What about the T/C (dose: 1.25 mg/kg/injection, schedule: Q01DX009 (ip), vehicle: Klucel (hydroxypropylcellulose) (HPC), evaluated on day 60) of the same compound?
A: 149 % of control

Q: And the survivor count (dose: 10.0 mg/kg/injection, schedule: Q01DX009 (ip), vehicle: Klucel (hydroxypropylcellulose) (HPC))?
A: 0 of 10 (2×)

Q: What about the survivor count (dose: 10.0 mg/kg/injection, schedule: Q01DX009 (ip), vehicle: saline + alcohol) of the same compound?
A: 3 of 10

Q: What about the survivor count (dose: 20.0 mg/kg/injection, schedule: Q01DX009 (ip), vehicle: saline + alcohol) of the same compound?
A: 1 of 10

Q: `COc1ccc(Br)cc1/C=N\NS(=O)(=O)c1ccc(C)cc1` was tested. Which survivor count [2] did it give?
A: 6 of 6

Q: For `Cc1ccc2no[n+]([O-])c2c1[N+](=O)[O-]`, which survivor count [3] is on record?
A: 6 of 10

Q: What about the survivor count [2] of the same compound?
A: 0 of 10

Q: Which survivor count (dose: 50.0 mg/kg/injection, schedule: Q01DX009 (ip), vehicle: saline with Tween-80) does the source give for `CS(=O)(=O)c1cc(=O)[nH]c(=O)[nH]1` here?
A: 10 of 10

Q: What about the survivor count [3] of the same compound?
A: 7 of 10

Q: What does the source list for `c1ccc(C[n+]2ccc3ccccc3c2)cc1`?
A: T/C [1]: 126 % of control; survivor count (dose: 50.0 mg/kg/injection, schedule: Q01DX009 (ip), vehicle: saline): 5 of 6 and 6 of 6

Q: How did the survivor count [3] turn out when `COC1=C(OC)C(=O)C(SC/C=C(\C)CCCC(C)CCCC(C)CCCC(C)C)=CC1=O` (stereo not drawn) was run?
A: 10 of 10

Q: Which results are given for `Cc1cccc(NC(=O)COc2ccc(Cl)cc2)c1C`?
A: survivor count [3]: 10 of 10; survivor count [2]: 9 of 10

Q: With `O=C(NO)c1ccccc1` as the compound, how does the survivor count (dose: 200.0 mg/kg/injection, schedule: Q01DX009 (ip), vehicle: suspension in saline) read?
A: 7 of 10

Q: And the survivor count (dose: 266.0 mg/kg/injection, schedule: Q04DX003 (ip), vehicle: saline with Tween-80)?
A: 7 of 10

Q: What about the survivor count [4] of the same compound?
A: 6 of 10

Q: What about the survivor count (dose: 400.0 mg/kg/injection, schedule: Q01DX009 (ip), vehicle: suspension in saline) of the same compound?
A: 4 of 10

Q: What about the survivor count (dose: 400.0 mg/kg/injection, schedule: Q04DX003 (ip), vehicle: saline with Tween-80) of the same compound?
A: 8 of 10

Q: Which survivor count [4] does the source give for `O=C([O-])C[n+]1ccccc1` here?
A: 8 of 10

Q: How did the survivor count (dose: 200.0 mg/kg/injection, schedule: Q01DX009 (ip), vehicle: water) turn out when `OCC#CCOCC(O)CCl` (stereo not drawn) was run?
A: 8 of 10

Q: Which T/C (dose: 25.0 mg/kg/injection, schedule: Q04DX003 (ip), vehicle: saline with Tween-80) does the source give for `CC1(C)N=C(N)N=C(N)N1c1ccc(OCc2ccc(C(=O)Nc3cccc(S(=O)(=O)F)c3)cc2)c(Cl)c1` here?
A: 127 % of control

Q: What about the T/C (dose: 50.0 mg/kg/injection, schedule: Q04DX003 (ip), vehicle: saline with Tween-80) of the same compound?
A: 140 % of control

Q: And the T/C (dose: 100.0 mg/kg/injection, schedule: Q04DX003 (ip), vehicle: saline with Tween-80)?
A: 129 % of control

Q: What about the survivor count (dose: 100.0 mg/kg/injection, schedule: Q04DX003 (ip), vehicle: saline) of the same compound?
A: 6 of 6

Q: What about the survivor count (dose: 200.0 mg/kg/injection, schedule: Q04DX003 (ip), vehicle: saline) of the same compound?
A: 6 of 6

Q: And the survivor count (dose: 400.0 mg/kg/injection, schedule: Q04DX003 (ip), vehicle: saline)?
A: 1 of 6

Reference: PubChem BioAssay AID192 (DTP/NCI, 2004)
